Measurements as given in PMC7456924.
Positions count from the first letter of the chain named. Names may count otherwise. Results are given in words; binding and its absence hold for the method and conditions named. For some of these results: In cells and extracts the contact can be indirect. Some entries that bind do so weakly or less than the wild type. Sequences can lack the tags named with a protein.

B1: LSU1 (RESPONSE TO LOW SULFUR 1), yeast two-hybrid fusion (protein, UniProt Q9SCK1 1-94)
chain: MANRGGCVTVAAEEMDELRRRNIELSREVAEMKTEMIKLWQRTVVAEEAEEQLCSQLAELEVESLEQARDYHDRMLFLMDQISRLSSSSVVSSS
B2: LSU4 (RESPONSE TO LOW SULFUR 4), yeast two-hybrid fusion (protein, UniProt Q8L8S2 1-92)
chain: MGKGGNYVMVAASEVEELRQKNGEMEKAVEEMRKEMLQLWRRTQVAEEAEEHLCSQLAELEAESLDQARDYHTRIIFLTNQLSRFSSDSASP
B3: LSU1 C54A, yeast two-hybrid fusion (protein, UniProt Q9SCK1 1-94)
chain: B1 chain with C54A
B4: LSU1 C54E, yeast two-hybrid fusion (protein, UniProt Q9SCK1 1-94)
chain: B1 chain with C54E
B5: LSU1 C54R, yeast two-hybrid fusion (protein, UniProt Q9SCK1 1-94)
chain: B1 chain with C54R
B6: LSU1 L60A, yeast two-hybrid fusion (protein, UniProt Q9SCK1 1-94)
chain: B1 chain with L60A
B7: LSU1, BiFC fusion (nYFP-LSU1 or cYFP-LSU1) (protein, UniProt Q9SCK1 1-94)
chain: B1 chain

Key:
[1] = molecular target: T1, LSU3 (RESPONSE TO LOW SULFUR 3), yeast two-hybrid fusion (A. thaliana) (UniProt Q9SCK2); assay: two-hybrid; Yeast Y2HGold or PJ69-4a; pDEST22 (GAL4 AD) and pDEST32 (GAL4 BD); growth on -LTH + 3 mM or 5 mM 3-AT or on -LTA; 30°C, or room temperature for longer exposures
T1 sequence: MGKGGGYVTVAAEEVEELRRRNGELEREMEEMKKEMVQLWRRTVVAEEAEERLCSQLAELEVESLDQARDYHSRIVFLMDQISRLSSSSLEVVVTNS

[2] = molecular target: T2, LSU4 (RESPONSE TO LOW SULFUR 4), yeast two-hybrid fusion (A. thaliana) (UniProt Q8L8S2); assay: as above
T2 sequence: B2 chain

[3] = molecular target: T3, NBR1 (selective autophagy cargo receptor), yeast two-hybrid fusion (A. thaliana) (UniProt Q9SB64); assay: as above
T3 sequence: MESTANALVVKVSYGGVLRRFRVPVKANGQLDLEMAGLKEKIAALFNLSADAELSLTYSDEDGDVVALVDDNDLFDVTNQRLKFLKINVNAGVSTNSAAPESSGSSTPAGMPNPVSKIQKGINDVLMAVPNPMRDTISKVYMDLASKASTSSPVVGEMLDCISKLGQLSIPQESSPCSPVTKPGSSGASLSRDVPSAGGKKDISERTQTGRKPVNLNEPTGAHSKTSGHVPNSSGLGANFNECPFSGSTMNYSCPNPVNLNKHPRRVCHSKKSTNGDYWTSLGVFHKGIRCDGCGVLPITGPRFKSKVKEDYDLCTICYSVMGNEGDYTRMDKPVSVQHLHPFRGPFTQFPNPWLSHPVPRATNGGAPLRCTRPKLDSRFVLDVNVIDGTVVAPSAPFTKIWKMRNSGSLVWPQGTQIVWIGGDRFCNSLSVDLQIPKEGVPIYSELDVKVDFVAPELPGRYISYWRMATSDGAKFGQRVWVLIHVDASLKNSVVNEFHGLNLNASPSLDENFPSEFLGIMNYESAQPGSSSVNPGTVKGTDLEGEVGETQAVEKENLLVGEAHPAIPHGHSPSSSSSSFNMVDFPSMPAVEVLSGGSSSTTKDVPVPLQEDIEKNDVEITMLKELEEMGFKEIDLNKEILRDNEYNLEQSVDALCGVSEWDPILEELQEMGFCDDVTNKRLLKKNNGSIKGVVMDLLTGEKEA

[4] = molecular target: T4, CAT2 (peroxisomal catalase), yeast two-hybrid fusion (A. thaliana) (UniProt P25819); assay: as above
T4 sequence: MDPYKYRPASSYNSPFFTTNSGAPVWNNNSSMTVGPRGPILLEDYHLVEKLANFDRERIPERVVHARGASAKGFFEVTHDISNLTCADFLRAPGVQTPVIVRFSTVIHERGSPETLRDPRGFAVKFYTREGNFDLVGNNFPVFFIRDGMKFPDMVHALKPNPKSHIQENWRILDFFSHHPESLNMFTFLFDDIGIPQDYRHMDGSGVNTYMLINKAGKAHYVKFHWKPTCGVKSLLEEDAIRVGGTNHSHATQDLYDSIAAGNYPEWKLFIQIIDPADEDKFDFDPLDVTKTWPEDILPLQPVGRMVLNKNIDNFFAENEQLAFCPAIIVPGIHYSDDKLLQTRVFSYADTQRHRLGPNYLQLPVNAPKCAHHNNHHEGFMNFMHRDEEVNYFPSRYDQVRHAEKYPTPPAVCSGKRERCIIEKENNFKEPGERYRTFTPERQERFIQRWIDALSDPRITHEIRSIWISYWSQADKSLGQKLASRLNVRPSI

[5] = molecular target: T5, LSU2 (RESPONSE TO LOW SULFUR 2), yeast two-hybrid fusion (A. thaliana) (UniProt Q9FIR9); assay: as above
T5 sequence: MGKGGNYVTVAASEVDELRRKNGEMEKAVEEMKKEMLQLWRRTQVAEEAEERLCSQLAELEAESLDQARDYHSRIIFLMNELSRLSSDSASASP

[6] = molecular target: T6, RAF2/SDIRIP1, yeast two-hybrid fusion (A. thaliana) (UniProt Q9LU63); assay: as above
T6 sequence: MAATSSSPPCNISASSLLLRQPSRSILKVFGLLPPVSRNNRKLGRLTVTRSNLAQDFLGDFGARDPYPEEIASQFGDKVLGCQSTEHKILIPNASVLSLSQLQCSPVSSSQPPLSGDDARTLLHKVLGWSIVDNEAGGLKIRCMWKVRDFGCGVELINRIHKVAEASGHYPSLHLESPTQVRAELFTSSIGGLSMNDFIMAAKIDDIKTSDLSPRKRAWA

[7] = molecular target: T7, LSU1 (RESPONSE TO LOW SULFUR 1), yeast two-hybrid fusion (A. thaliana) (UniProt Q9SCK1); assay: as above
T7 sequence: B1 chain

[8] = molecular target: LSU1 C54A, yeast two-hybrid fusion (A. thaliana) (UniProt Q9SCK1); assay: as above
[9] = molecular target: LSU1 C54E, yeast two-hybrid fusion (A. thaliana) (UniProt Q9SCK1); assay: as above
[10] = molecular target: LSU1 C54R, yeast two-hybrid fusion (A. thaliana) (UniProt Q9SCK1); assay: as above
[11] = molecular target: LSU1 L60A, yeast two-hybrid fusion (A. thaliana) (UniProt Q9SCK1); assay: as above
[12] = molecular target: T8, NBR1 (selective autophagy cargo receptor), BiFC fusion (A. thaliana) (UniProt Q9SB64); assay: split reporter; BiFC in planta: N. benthamiana leaves agroinfiltrated with pSITE-nEYFP-C1 and pSITE-cEYFP-C1 fusions, confocal microscopy three days after agroinfiltration
T8 sequence: T3 sequence

[13] = molecular target: T9, APS1 (ATP sulfurylase), BiFC fusion (A. thaliana) (UniProt Q9LIK9); assay: as above
T9 sequence: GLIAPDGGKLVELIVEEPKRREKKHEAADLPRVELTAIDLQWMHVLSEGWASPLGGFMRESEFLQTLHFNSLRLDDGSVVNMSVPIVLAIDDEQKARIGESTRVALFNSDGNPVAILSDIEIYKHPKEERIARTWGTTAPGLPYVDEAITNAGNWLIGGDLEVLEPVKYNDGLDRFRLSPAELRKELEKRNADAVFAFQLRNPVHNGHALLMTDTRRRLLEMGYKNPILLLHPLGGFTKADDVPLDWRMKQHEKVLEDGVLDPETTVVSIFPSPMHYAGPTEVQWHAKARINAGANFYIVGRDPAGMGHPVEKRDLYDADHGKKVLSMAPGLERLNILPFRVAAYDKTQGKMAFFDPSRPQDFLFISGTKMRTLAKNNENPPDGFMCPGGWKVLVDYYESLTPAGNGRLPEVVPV

[14] = molecular target: T10, LSU4, BiFC fusion (nYFP-LSU4 or cYFP-LSU4) (A. thaliana) (UniProt Q8L8S2); assay: as above
T10 sequence: B2 chain

[15] = molecular target: T11, LSU3, BiFC fusion (nYFP-LSU3 or cYFP-LSU3) (A. thaliana) (UniProt Q9SCK2); assay: as above
T11 sequence: T1 sequence

[16] = molecular target: T12, LSU2, BiFC fusion (nYFP-LSU2 or cYFP-LSU2) (A. thaliana) (UniProt Q9FIR9); assay: as above
T12 sequence: T5 sequence

[17] = molecular target: T13, RAF2/SDIRIP1, BiFC fusion (A. thaliana) (UniProt Q9LU63); assay: as above
T13 sequence: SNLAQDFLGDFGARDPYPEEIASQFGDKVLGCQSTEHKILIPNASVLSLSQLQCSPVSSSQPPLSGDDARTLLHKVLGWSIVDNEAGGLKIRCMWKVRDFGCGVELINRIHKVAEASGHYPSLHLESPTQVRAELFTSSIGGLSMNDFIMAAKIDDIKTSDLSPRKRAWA

[18] = molecular target: T14, CAT2 (peroxisomal catalase), BiFC fusion (A. thaliana) (UniProt P25819); assay: as above
T14 sequence: T4 sequence

Binder	binding [3]	binding [4]	binding [5]	binding [6]	binding [7]	also measured
B1	binds	binds	binds	binds	binds	binding [1]: binds; binding [2]: binds weakly
B2	binds weakly				binds weakly	binding [1]: binds weakly
B3	binds	binds	binds	binds	binds	binding [8]: binds
B4	binds	binds weakly	binds	binds	binds	binding [9]: binds
B5	binds	binds	binds	binds	binds	binding [10]: binds
B6		binds	binds	binds	binds	binding [11]: binds
B7						binding [12]: binds; binding [13]: binds; binding [14]: binds; binding [15]: binds; binding [16]: binds; binding [17]: binds; binding [18]: binds
